{"source": "PubChem BioAssay AID652272 (Drosophila RNAi Screening Center, 2013)", "purpose": "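Genome-wide knock-down search for components of Hedgehog signalling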 (primary screen)", "cell system": "Drosophila clone 8 (Cl8) cells", "reagents": "long dsRNA against Drosophila genes", "measured": "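Plate reader light from a firefly reporter under a ptc promoter fragment that responds to Hedgehog, with Renilla light as transfection reference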", "direction": "firefly Hh reporter signal: higher = more ptc reporter light; Renilla reference signal: higher = more Renilla control light", "active means": "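Hit when the z-score averaged over two replicates is under -2 or over +3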", "calls": "active = hit: reporter lowered or raised; inactive = not a hit", "note": "In all, the deposit lists about 21,000 reagents; below is a random part of those with a known target gene and a result. In the full data, 503 (2.4%) are marked active. 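Raw plate light values, not normalised; calls rest on replicate z-scores that were not deposited; hits include reporter decreases as well as increases.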 A number with no mark means an inactive call. Names joined by + are all predicted targets of the reagent. The record does not give: the amount of reagent, the time to read-out."}
{"Gene":"CG12213","DRSC id":"DRSC14478","firefly Hh reporter signal, replicate 1":1.56e5,"firefly Hh reporter signal, replicate 2":8.95e5,"firefly Hh reporter signal, replicate 3":1.64e5,"Renilla reference signal, replicate 1":5939,"Renilla reference signal, replicate 2":50177}
{"Gene":"CheA86a (Chemosensory protein A 86a)","DRSC id":"DRSC12839","firefly Hh reporter signal, replicate 1":49629,"firefly Hh reporter signal, replicate 2":2.14e5,"Renilla reference signal, replicate 1":9985,"Renilla reference signal, replicate 2":4250}
{"Gene":"Polr1D + DCTN6-p27","DRSC id":"DRSC02094","firefly Hh reporter signal, replicate 1":57372,"firefly Hh reporter signal, replicate 2":40116,"Renilla reference signal, replicate 1":1756,"Renilla reference signal, replicate 2":4625}
{"Gene":"CG17698","DRSC id":"DRSC11907","firefly Hh reporter signal, replicate 1":85340,"firefly Hh reporter signal, replicate 2":96633,"Renilla reference signal, replicate 1":2816,"Renilla reference signal, replicate 2":2792}
{"Gene":"CG15753 (retired record)","DRSC id":"DRSC18982","firefly Hh reporter signal, replicate 1":7.91e5,"firefly Hh reporter signal, replicate 2":1.25e5,"Renilla reference signal, replicate 1":4189,"Renilla reference signal, replicate 2":4189}
{"Gene":"CG15753 (retired record)","DRSC id":"DRSC19503","firefly Hh reporter signal, replicate 1":1.12e5,"firefly Hh reporter signal, replicate 2":98331,"Renilla reference signal, replicate 1":2344,"Renilla reference signal, replicate 2":2128}
{"Gene":"CG15753 (retired record)","DRSC id":"DRSC19716","firefly Hh reporter signal, replicate 1":82272,"firefly Hh reporter signal, replicate 2":2.78e5,"Renilla reference signal, replicate 1":2496,"Renilla reference signal, replicate 2":11297}
{"Gene":"CG15753 (retired record)","DRSC id":"DRSC19717","firefly Hh reporter signal, replicate 1":69488,"firefly Hh reporter signal, replicate 2":2.06e5,"Renilla reference signal, replicate 1":1613,"Renilla reference signal, replicate 2":6404}
{"Gene":"CG15753 (retired record)","DRSC id":"DRSC19718","firefly Hh reporter signal, replicate 1":"40469 (active)","firefly Hh reporter signal, replicate 2":26056,"Renilla reference signal, replicate 1":2613,"Renilla reference signal, replicate 2":1057}
{"Gene":"CG7376","DRSC id":"DRSC10829","firefly Hh reporter signal, replicate 1":73876,"firefly Hh reporter signal, replicate 2":1.04e5,"Renilla reference signal, replicate 1":3702,"Renilla reference signal, replicate 2":4288}
{"Gene":"CG4101","DRSC id":"DRSC10400","firefly Hh reporter signal, replicate 1":1.51e5,"Renilla reference signal, replicate 1":3856,"Renilla reference signal, replicate 2":15027}

No new results follow: an excerpt of the list.
{"Gene":"CheA86a (Chemosensory protein A 86a)","DRSC id":"DRSC12839","firefly Hh reporter signal, replicate 1":49629,"firefly Hh reporter signal, replicate 2":2.14e5,"Renilla reference signal, replicate 1":9985,"Renilla reference signal, replicate 2":4250}
{"Gene":"Polr1D + DCTN6-p27","DRSC id":"DRSC02094","firefly Hh reporter signal, replicate 1":57372,"firefly Hh reporter signal, replicate 2":40116,"Renilla reference signal, replicate 1":1756,"Renilla reference signal, replicate 2":4625}

Additional results follow:
{"Gene":"idc (identity crisis)","DRSC id":"DRSC15680","firefly Hh reporter signal, replicate 1":79181,"firefly Hh reporter signal, replicate 2":67808,"Renilla reference signal, replicate 1":3499,"Renilla reference signal, replicate 2":2924}
{"Gene":"ssp7 (short spindle 7)","DRSC id":"DRSC18878","firefly Hh reporter signal, replicate 1":4.32e5,"firefly Hh reporter signal, replicate 2":1.66e5,"Renilla reference signal, replicate 1":22793,"Renilla reference signal, replicate 2":3824}
{"Gene":"csw (corkscrew)","DRSC id":"DRSC18756","firefly Hh reporter signal, replicate 1":1.15e5,"firefly Hh reporter signal, replicate 2":2.03e5,"Renilla reference signal, replicate 1":4546,"Renilla reference signal, replicate 2":7959}
{"Gene":"CG14015","DRSC id":"DRSC02346","firefly Hh reporter signal, replicate 1":79428,"firefly Hh reporter signal, replicate 2":44169,"Renilla reference signal, replicate 1":1936,"Renilla reference signal, replicate 2":4009}
{"Gene":"cyp33 (cyclophilin-33)","DRSC id":"DRSC07600","firefly Hh reporter signal, replicate 1":71499,"firefly Hh reporter signal, replicate 2":69157,"Renilla reference signal, replicate 1":3832,"Renilla reference signal, replicate 2":3162}
{"Gene":"CG7220","DRSC id":"DRSC05235","firefly Hh reporter signal, replicate 1":1.12e5,"firefly Hh reporter signal, replicate 2":2.28e5,"Renilla reference signal, replicate 1":3172,"Renilla reference signal, replicate 2":10417}
{"Gene":"CG7220","DRSC id":"DRSC07018","firefly Hh reporter signal, replicate 1":1.06e5,"firefly Hh reporter signal, replicate 2":59840,"Renilla reference signal, replicate 1":2793,"Renilla reference signal, replicate 2":6027}
{"Gene":"ppk24 (pickpocket 24)","DRSC id":"DRSC15093","firefly Hh reporter signal, replicate 1":1.11e5,"firefly Hh reporter signal, replicate 2":74956,"Renilla reference signal, replicate 1":3845,"Renilla reference signal, replicate 2":1424}
{"Gene":"CG7194","DRSC id":"DRSC10784","firefly Hh reporter signal, replicate 1":36617,"firefly Hh reporter signal, replicate 2":55437,"Renilla reference signal, replicate 1":3106,"Renilla reference signal, replicate 2":4032}
{"Gene":"CG42715 (retired record)","DRSC id":"DRSC05499","firefly Hh reporter signal, replicate 1":74104,"firefly Hh reporter signal, replicate 2":2.18e5,"Renilla reference signal, replicate 1":2362,"Renilla reference signal, replicate 2":10992}
